The target in this assay is cathepsin B. Nature of the assay: protease inhibition assay with substrate, apparent Ki.

These are yes or no findings as the source states them, for the method shown.

B1: human Cystatin F (recombinant, produced in a baculovirus system) (other)
chain: GPSPDTCSQDLNSRVKPGFPKTIKTNDPGVLQAARYSVEKFNNCTNDMFLFKESRITRALVQIVKGLKYMLEVEIGRTTCKKNQHLRLDDCDFQTNHTLKQTLSCYSEVWVVPWLQHFEVPVLRCH
notes: 20-145 is used here; also called recombinant Cystatin F
Turning to B1, the binding entry was “no binding (tested: much greater than 1000 nM)”.

(Values after patent US20030114646A1 (Human Genome Sciences, published 2003).)
